Results on 3 compounds are retold here after paper PMC9763021, “Comprehensive Assessment of Biomolecular Interactions of Morpholine-Based Mixed Ligand Cu(II) and Zn(II) Complexes of 2,2′-Bipyridine as Potential Anticancer and SARS-CoV-2 Agents: A Synergistic Experimental and Structure-Based Virtual Screening” (Bioinorganic Chemistry and Applications, 2022).

This data set deals with CT-DNA. Kind of data set: DNA binding by cyclic voltammetry. Set-up: species or system calf thymus. Conditions: for D0, (bound) / E° (or) E1/2, (bound) / Ipa/Ipc, (bound) / ΔEP, (bound): DNA-bound; for D0, free / E° (or) E1/2, free / Ipa/Ipc, free / ΔEP, free: no DNA; for ΔEP, free: scan rate 100 mV·s^−1. As for the experimental part: The CV titration for free substances was conducted at 10 μM at 25°C in the presence of Tris-HCl buffer solution (pH: 7.4). While CT-DNA increases (0–10 μM) in each sample solution, a shift in potential, including variations in the peak currents of anodic and cathodic sides, has been monitored.
The CV technique is one of the most important tools for investigating the DNA-complex adduct's binding mechanism. The CV properties of all test samples in the presence and absence of DNA were executed at a scan rate (v) 0.1 Vs^−1 with a potential range of +2 to −2 in a Tris-HCl (5 mM)/NaCl (50 mM) (pH = 7.2) solution. The M^1+/M^2+ redox couple is caused by complexes that reveal a single anodic and cathodic peak. […] (Figure S29 and Table 6).
ΔEP is peak-to-peak separation = (EPa − EPc); E°(or) E1/2 is denoted as formal electrode potential = 1/2 (EPa + EPc); Es°=(Eb° − Ef°)Eb° and Ef° are represented as the formal electrode potential of the M^1+/M^2+ couple in the bound and free forms, respectively. Es° = +19 mV (HL), +34 mV (1a), and +31 mV (2a). Ipa is anodic peak current, Ipc is cathodic peak current. K^1+ is binding constant of reduction process, K^2+ is binding constant of oxidation process, S is represented as binding site size of base pairs (bp) with a molecule of complex, Scan rate is 100 mV·s^−1, binding constant (Kb) values observed from the linear plots of log (1/[DNA]) vs. log (I/I0 − I) for oxidation and reduction, (I0 − IDNA)/IDNA = Cp/Cf versus [DNA] and Ip ^2 versus (Ipo ^2 −Ip ^2 )/[DNA] by methods I, II, and III, respectively.(24) DiffusioncoefficientD0=7.51×10^−5 SlopelogI0 −I/I=log DNA+logKb, where I0 and I are represented as the peak currents of the compound in the absence and presence of DNA.(25) log DNA=logI0 −I/I+log1/Kb log1/DNA=logI/I0−I+logKb, (26) I0 −I/I=KbDNA, (27) I0 −I/I=Cb/Cf, where Cf and Cb are denoted as the free substance concentration and DNA-interacted compound, respectively. (29) was obtained by comparing equations (27) and (28).(28) Cb/Cf=KbDNA, (29) Cb/Cf=Kbfreebasrpairs/S , (30) Cb/Cf=KbDNA/2 S +1.
S is denoted as binding site size (bp), and Kb are estimated from (31) with the help of S = (intercept/4)^1/2 and (Kb = 2S (slope/intercept), respectively. Nernst equations are as follows:(31) Es°=Eb°−Ef°=0.0591 /n logKred/Koxi, (32) Kred/Koxi=Ant. log nEb°−Ef°/0.0591.
E 1/2 or Eb° and Ef° are the formal electrode potentials of the M^1+/M^2+ couple in their bound and free forms, respectively.(33) Ip 2 =1/KbDNAIp0 2 −Ip 2 +Ip0 2 −DNA, where Ipo and Ip are denoted as the peak currents of the complexes (1–3) in the absence and presence of DNA.(34) Ipa=2.69×10^5 n^3/2 α^1/2 AC0 ∗D0 1/2 v^1/2 , (35) Ipa=13314.7D0 1/2 v^1/2 , where Ipa is denoted as the anodic peak current in amperes, n is represented as the number of electrons participating in the redox (M^1+/M^2+) process (n = 1), charge transfer coefficient (or) activation coefficient (α)≈0.5 for quasireversible systems, which also calculated from Bard–Faulkner relation(35a) α=47.7/EPa−EP/2.
C0^∗ ⟶ Bulk concentration of the compound, A is denoted as the cross-sectional area of the working electrode (glassy carbon) in cm^2 (A∼0.07 cm^2), D0 is denoted as diffusion coefficient (cm^2 s^−1) of the M^1+/M^2+ couple in the free and bound forms, respectively, and v is denoted as the potential scan rate at 0.1 Volt·s^−1. While the substances often bind to deoxyribonucleic acid through intercalation, the peak potential shifts in a positive direction. When the compounds bind to deoxyribonucleic acid via minor or major grooves or electrostatic attractions, the peak potential shifts occur in a negative direction. […]

For the compound `Oc1ccccc1N=Cc1ccc(N2CCOCC2)cc1` [(HL), 2-(4-morpholinobenzylideneamino)phenol], the “D0, (bound)” value is recorded as 2.5809 × 10^−5 cm^2·s^−1; the “E° (or) E1/2, (bound)” value came to 0.3680 V; the “Ipa/Ipc, (bound)” value is listed as 1.3424; the “ΔEP, (bound)” value came to 0.8890 V. Further, the “D0, free” value is given as 2.8570 × 10^−5 cm^2·s^−1; the “E° (or) E1/2, free” value was 0.3490 V; the “Ipa/Ipc, free” value was found to be 1.4295; the “ΔEP, free” value stood at 0.7420 V.
With `[Cu+2].[O-]c1ccccc1N=Cc1ccc(N2CCOCC2)cc1.[O-]c1ccccc1N=Cc1ccc(N2CCOCC2)cc1.c1ccc(-c2ccccn2)nc1` [(1a), [Cu(L)2(bpy)]], the “D0, (bound)” value was 4.3266 × 10^−5 cm^2·s^−1; the “E° (or) E1/2, (bound)” value is on record as 0.7398 V; the “Ipa/Ipc, (bound)” value was determined as 0.2031; the “ΔEP, (bound)” value came to 0.2807 V. In addition, the “D0, free” value is recorded as 4.9799 × 10^−5 cm^2·s^−1; the “E° (or) E1/2, free” value came out at 0.7054 V; the “Ipa/Ipc, free” value was found to be 1.2653; the “ΔEP, free” value is 0.4352 V.
Consider `[O-]c1ccccc1N=Cc1ccc(N2CCOCC2)cc1.[O-]c1ccccc1N=Cc1ccc(N2CCOCC2)cc1.[Zn+2].c1ccc(-c2ccccn2)nc1` [(2a), [Zn(L)2(bpy)]], for which the “D0, (bound)” value is listed as 3.6257 × 10^−5 cm^2·s^−1; the “E° (or) E1/2, (bound)” value amounted to 0.5719 V; the “Ipa/Ipc, (bound)” value was found to be 0.5000; the “ΔEP, (bound)” value is given as 0.2965 V. In addition, the “D0, free” value is 3.9665 × 10^−5 cm^2·s^−1; the “E° (or) E1/2, free” value came out at 0.5406 V; the “Ipa/Ipc, free” value is listed as 1.8999; the “ΔEP, free” value was 0.4819 V.
